Test results taken from patent EP0336800A1, “Methods and kit for determining sulfamethazine in animal fluids or feed” (IDETEK, INC., priority 1988, dated 1989).
At least one compound was matched to its structure with a doubt left.

Tested on: anti-sulfamethazine antibody
Assay: Competitive direct enzyme immunoassay (EIA) with immobilized anti-sulfamethazine antibody and sulfamethazine-HRP conjugate
Parameters: species or system New Zealand female white rabbits
Settings: (nM of sulfamethazine for 50% binding/nM sulfa analogue for 50% binding) x 100
Method: Each well of the microtiter plate was filled with 200 µL solution of r-Protein A (2 µg/mL in l0 mM PBS, pH 7.2). These strips were sealed and incubated at 4°C for 5 hours. The r-Protein A solution was aspirated and the wells were washed 5 times with saline-Tween (0.9 percent NaCl containing 0.05 percent Tween-20). Each well was then incubated with 300µL solution of 0.l percent casein in 20 mM PBS, pH 7.2, at 37°C for 30 min and washed as described above. Each well was then filled with 200µL of antibody solution (l2.5 µg/mL in 50 mM carbonate-bicarbonate buffer, pH 9.6) and incubated at 4°C overnight (l5-20 hours). The solution was aspirated and the wells air-dried at room temperature for 2-3 hours. […]
The enzyme conjugate (sulfamethazine-HRP) was appropriately diluted (generally l:l000) with 20 mM PBS, pH 7.2, containing 0.0l percent casein (w/v) and mixed with standards or samples in l0:l ratio. […] Absorbance of the color was monitored at 405 nm in an EIA plate reader. Percent binding was calculated from the absorbance contained in the absence (B′) and presence (B) of sulfamethazine in standards/samples as follows: % binding = (B/B′) x l00.
A standard curve was prepared by plotting log sulfamethazine concentration vs. percent binding. The content of sulfamethazine in an unknown sample was determined from the standard curve.

## O=C1C(CC[S+]([O-])c2ccccc2)C(=O)N(c2ccccc2)N1c1ccccc1 (stereo not shown) [Sulfinpyrazone]
  % Cross-Reactivity: 0.0%
